For the experiment, the target named is T1, Fc protein of human IgG1 antibody (human, UniProt P01857-1 100-330 = IgG part, limits assumed).
T1 construct: domain: Fc; Immobilised on a CM5 chip by amine coupling at about 1400 RU; also called Fc region of an IgG1 antibody
In words: SPR Biacore T200, 25 C, Fc of human IgG1 amine-coupled on CM5, peptide as analyte, single cycle kinetics.

B1: QET-ProAR-PA48-Z34CK (peptide)
chain: QETFNREQQNAFYEILHLPNLNEEQRNGFIQSLRDDPSQSANLLAEAGGAAPAAPAPAAPAAPAPAAPAAPAPAAPAAPAPAAPAAPAPAAPAAPAPGGFNKQCQRRFYEALHDPNLNEEQRNARIRSIREEC
modifications: C-terminal -NH2 as printed in the 1st table; N-terminal Gln designed to be pyroglutamylated
By Kd is commonly meant the free concentration of one partner at which half of the binding sites on the other are occupied at equilibrium, for simple one-to-one binding. In turn, B1 returned a Kd of 1.08 nM.

(Values after patent US20250101129A1 (AJINOMOTO, published 2025).)
